Assay results published in the supplement of paper PMC3682954.
Values joined by “and” are separate entries in the source; they are usually repeats but may differ in a detail not shown here. Identical values can stand only once. Counter-ions that a name gives are not always drawn. ± gives the standard deviation of the averaged measurements. The list shows a part of the results. Single values are uncertain, as repeats are few or missing.

System: RAW 264.7
Assay: cell viability (MTT) relative to vehicle control; higher = more viable cells
Conditions: stimulus: HMGB1 5 ug/ml, 18 h
[1] = compound concentration: 1 ug/ml

Structure (SMILES)	cell viability (compound concentration: 3 uM)	cell viability [1] [%]
CC1(C)CCC2=C(O1)c1ccccc1C(=O)C2=O [beta-Lapachone]	92.7%	–
CC(=O)OCC[N+](C)(C)C [Acetylcholine]	121%	–
CC(=O)OCC[N+](C)(C)C	108%	–
CC(C)C(=O)Nc1ccc([N+](=O)[O-])c(C(F)(F)F)c1	107%	–
CC(C)C(=O)Nc1ccc([N+](=O)[O-])c(C(F)(F)F)c1 [Flutamide]	101 ± 9%	–
Cn1cnc([N+](=O)[O-])c1Sc1ncnc2[nH]cnc12	102 ± 8.3%	–
Cn1cnc([N+](=O)[O-])c1Sc1ncnc2[nH]cnc12 [Azathioprine]	96.5 ± 5.6%	–
COc1cc2c(cc1OC)-c1c(OC)c(OC)cc3ccnc(c13)C2=O [Oxoglaucine]	–	86.3
CC1COc2c(N3CCN(C)CC3)c(F)cc3c(=O)c(C(=O)O)cn1c23 (stereo not given) [Ofloxacin]	105 ± 5.2%	–
CC1COc2c(N3CCN(C)CC3)c(F)cc3c(=O)c(C(=O)O)cn1c23 (stereo not given)	103%	–
N[C@@H](CSSC[C@H](N)C(=O)O)C(=O)O	115%	–
COCC(=O)Nc1c(I)c(C(=O)NCC(O)CO)c(I)c(C(=O)N(C)CC(O)CO)c1I (stereo not given) [Iopromide]	72.3%	–
C[C@@]1(O)CCOC(=O)C1 [Mevalonic-D, L acid lactone]	109%	–
O=C[C@H](O)[C@@H](O)[C@H](O)[C@H](O)CO[C@@H]1O[C@H](CO)[C@@H](O)[C@H](O)[C@H]1O [Gentiobiose]	–	101
CCOC(=O)Nc1ccc(NCc2ccc(F)cc2)nc1N [Flupirtine maleate]	110%	–
COc1cn([C@@H]2O[C@H](CO)[C@@H](O)[C@H]2O)c(=O)[nH]c1=O [5-Methoxyuridine]	–	94.5
O=C(O)CCCC[C@@H]1SC[C@@H]2NC(=O)N[C@@H]21	101%	–
O=C(O)CCCC[C@@H]1SC[C@@H]2NC(=O)N[C@@H]21 [Biotin]	114%	97.2
COC(=O)C1=C(C)NC(C)=C(C(=O)OC(C)C)C1c1cccc2nonc12 (stereo not given) [Isradipine]	71.4%	–
COC(=O)C1=C(C)NC(C)=C(C(=O)OC(C)C)C1c1cccc2nonc12 (stereo not given)	94%	–
CC(C)(C)OC(=O)N[C@@H](Cc1cnc[nH]1)C(=O)O [N-alpha-(tert-Butoxycarbonyl)-L-histidine]	–	97.7
CC(=O)SCC(Cc1ccccc1)C(=O)NCC(=O)OCc1ccccc1 (stereo not given)	95.6%	–

Structure (SMILES)	cell viability (compound concentration: 3 uM)	cell viability [1] [%]
CC(=O)SCC(Cc1ccccc1)C(=O)NCC(=O)OCc1ccccc1 (stereo not given) [Racecadotril]	109 ± 5.5%	–
C[C@H](CCC(=O)O)[C@H]1CC[C@H]2[C@@H]3CC[C@@H]4C[C@H](O)CC[C@]4(C)[C@H]3CC[C@]12C [Lithocholic acid]	91.7%	123
O=C(O)/C=C/c1cnc[nH]1 [4-Imidazoleacrylic acid]	110%	–
O=C(O)/C=C/c1cnc[nH]1 [Urocanic acid]	–	103
COCCc1ccc(OCC(O)CNC(C)C)cc1 (stereo not given)	110%	–
COCCc1ccc(OCC(O)CNC(C)C)cc1 (stereo not given) [Metoprolol]	94.5%	–
CC(C)(C)NC[C@H](O)COc1ccccc1C1CCCC1 [Penbutolol sulfate]	84.3%	–
COc1ccc(C(=O)c2ccccc2O)c(O)c1 [Dioxybenzone]	95.2%	–
COc1ccc(C(=O)c2ccccc2O)c(O)c1	99.6%	–
COC1=CC(=O)C=C(OC)C1=O	82.4%	–
CC(C)Cc1ccc(C(C)C(=O)O)cc1 (stereo not given) [Ibuprofen]	84.4%	–
CC(C)Cc1ccc(C(C)C(=O)O)cc1 (stereo not given)	98.9%	–
COc1cc2c(cc1OC)C(=O)N(C)CC2 [N-methylcorydaldine]	–	90.9
COc1ccc(CN2CCN(C(c3ccc(F)cc3)c3ccc(F)cc3)CC2)c(OC)c1OC	95.8%	–
COc1ccc(CN2CCN(C(c3ccc(F)cc3)c3ccc(F)cc3)CC2)c(OC)c1OC [Lomerizine]	103%	–
O=C(O)C1(C(=O)O)CCC1.[NH2-].[NH2-].[Pt+2] [Carboplatin]	99.46 ± 0.23%	–
O=C(O)C1(C(=O)O)CCC1.[NH2-].[NH2-].[Pt+2]	105 ± 6%	–
O=c1c(O)c(-c2ccc(O)c(O)c2)oc2cc(O)cc(O)c12 [Quercetin dihydrate]	101%	–
CC(=O)Nc1cccc(O)c1	112%	–
Cc1cnc(C(=O)O)c[n+]1[O-] [Acipimox]	100 ± 8.7%	–
COC(=O)C(N)Cc1ccc(Cl)cc1 (racemic) [DL-p-Chlorophenylalanine methyl ester hydrochloride]	98.5%	–
N[C@H](C(=O)O)[C@H]1C[C@@H]1C(=O)O [(2S,1'S,2'S)-2-(carboxycyclopropyl)glycine]	106%	–

Structure (SMILES)	cell viability (compound concentration: 3 uM)	cell viability [1] [%]
CC1=C(C/C=C(\C)CCC[C@H](C)CCC[C@H](C)CCCC(C)C)C(=O)c2ccccc2C1=O	99.6%	–
CC1=C(C/C=C(\C)CCC[C@H](C)CCC[C@H](C)CCCC(C)C)C(=O)c2ccccc2C1=O [Phylloquinone; phytonadione; Vitamin K_1]	–	127
O=C(OCCOCCO)c1ccccc1Nc1cccc(C(F)(F)F)c1 [Etofenamate]	114%	–
O=C(O)[C@H]1/C(=C/CO)O[C@@H]2CC(=O)N21 [Potassium clavulanate]	101%	–
CCOC(=O)[N-]c1c[n+](N2CCOCC2)no1	97.7%	–
CCOC(=O)[N-]c1c[n+](N2CCOCC2)no1 [Molsidomine]	97.5 ± 13%	–
CO[C@H]1[C@H](O)[C@@H](O)[C@@H](O)[C@H](O)[C@@H]1O [D-Pinitol ;  3-O-Methyl-D-chiro-inositol]	–	91.3
CC[N+](CC)(CC)CCOc1cccc(OCC[N+](CC)(CC)CC)c1OCC[N+](CC)(CC)CC	109%	–
CC[N+](CC)(CC)CCOc1cccc(OCC[N+](CC)(CC)CC)c1OCC[N+](CC)(CC)CC [Gallamine triethiodide]	105 ± 3.8%	–
NS(=O)(=O)c1cc2c(cc1Cl)NC(CC1CCCC1)NS2(=O)=O (stereo not given) [Cyclopenthiazide]	78.2%	–
O=C(O)CCCCC1CCSS1 (racemic) [(±)-alpha-Lipoic Acid]	111%	–
O=C(O)CCCCC1CCSS1 (racemic) [DL-Thioctic acid]	–	107
CC(C)(C)NCC(O)c1cc(O)cc(O)c1 (stereo not given)	97.7%	–
CC(C)(C)NCC(O)c1cc(O)cc(O)c1 (stereo not given) [Terbutaline hemisulfate]	106 ± 14%	–
C#C[C@]1(O)CC[C@H]2[C@@H]3CCC4=C(CCC(=O)C4)[C@H]3CC[C@@]21C [Norethynodrel]	106%	–
C#C[C@]1(O)CC[C@H]2[C@@H]3CCC4=C(CCC(=O)C4)[C@H]3CC[C@@]21C	104%	–
C=C(c1ccc(C(=O)O)cc1)c1cc2c(cc1C)C(C)(C)CCC2(C)C [Bexarotene]	131%	–
CC/C(=C(\c1ccccc1)c1ccc(OCCN(C)C)cc1)c1ccccc1 [Tamoxifen citrate]	102 ± 10%	–
CC/C(=C(\c1ccccc1)c1ccc(OCCN(C)C)cc1)c1ccccc1	94.1%	–
CC/C(=C(\c1ccccc1)c1ccc(OCCN(C)C)cc1)c1ccccc1 [Tamoxifen]	104 ± 4.9%	–
CCc1oc2ccccc2c1C(=O)c1cc(Br)c(O)c(Br)c1	88.9% and 93.8%	–
CCc1oc2ccccc2c1C(=O)c1cc(Br)c(O)c(Br)c1 [Benzbromarone]	86.4%	–

Structure (SMILES)	cell viability (compound concentration: 3 uM)	cell viability [1] [%]
NCc1ccc(S(N)(=O)=O)cc1	118%	–
NCc1ccc(S(N)(=O)=O)cc1 [Mafenide hydrochloride]	106%	–
CN[C@@H]1[C@H](O[C@H]2[C@H](O[C@H]3[C@H](O)[C@@H](O)[C@H](NC(=N)N)[C@@H](O)[C@@H]3NC(=N)N)O[C@@H](C)[C@]2(O)CO)O[C@@H](CO)[C@H](O)[C@H]1O	97.9%	–
CN[C@@H]1[C@H](O[C@H]2[C@H](O[C@H]3[C@H](O)[C@@H](O)[C@H](NC(=N)N)[C@@H](O)[C@@H]3NC(=N)N)O[C@@H](C)[C@]2(O)CO)O[C@@H](CO)[C@H](O)[C@H]1O [Dihydrostreptomycin sulfate]	97.6%	–
CN(CC[C@@H](Oc1ccc(C(F)(F)F)cc1)c1ccccc1)CC(=O)[O-].[Li+]	105%	–
CCN1CCC[C@H]1CNC(=O)c1c(O)c(Cl)cc(Cl)c1OC [Raclopride]	116 ± 30%	–
O=C(O)c1ccccc1	102%	–
O=C(O)c1cccnc1C(=O)O [Quinolinic acid]	101%	–
CCCCC[C@H](O)/C=C/[C@H]1[C@H](O)CC(=O)[C@@H]1CCCCCCC(=O)O [Alprostadil]	86.2 ± 6.4%	–
CCCCC[C@H](O)/C=C/[C@H]1[C@H](O)CC(=O)[C@@H]1CCCCCCC(=O)O [Prostaglandin E1]	97.2%	–
COc1cc2ncnc(Nc3ccc(F)c(Cl)c3)c2cc1OCCCN1CCOCC1 [Gefitinib]	102 ± 1.2%	–
CC(C(=O)O)c1ccc(C(=O)c2cccs2)cc1 (stereo not given) [Suprofen]	100%	–
CC(C(=O)O)c1ccc(C(=O)c2cccs2)cc1 (stereo not given)	103%	–
O=C(c1ccc(OCCCc2c[nH]cn2)cc1)C1CC1 [Ciproxifan hydrochloride]	122%	–
CN1CCC[C@@H]1CCO[C@](C)(c1ccccc1)c1ccc(Cl)cc1 [Clemastine fumarate]	104 ± 5.8%	–
CN1CCC[C@@H]1CCO[C@](C)(c1ccccc1)c1ccc(Cl)cc1	96.8%	–
CN1CCC[C@@H]1CCO[C@](C)(c1ccccc1)c1ccc(Cl)cc1 [Clemastine]	100%	–
CCOc1ccc(NC(C)=O)cc1 [Phenacetin]	78.5%	–
CCOc1ccc(NC(C)=O)cc1	102%	–
C=CC(C)(O)CCCC(C)CCCC(C)CCCC(C)C (stereo not given) [Isophytol]	–	107
CN1CCN(c2c(F)cc3c(=O)c(C(=O)O)cn4c3c2SCC4)CC1	102%	–
CN1CCN(c2c(F)cc3c(=O)c(C(=O)O)cn4c3c2SCC4)CC1 [Rufloxacin]	109 ± 15%	–
